The values that follow come from paper PMC12360028.

Protein sequences, listed by entry. Tags and fused reporters are not part of them. Residues count along the entry.
UniProt P05107, residues 23-769: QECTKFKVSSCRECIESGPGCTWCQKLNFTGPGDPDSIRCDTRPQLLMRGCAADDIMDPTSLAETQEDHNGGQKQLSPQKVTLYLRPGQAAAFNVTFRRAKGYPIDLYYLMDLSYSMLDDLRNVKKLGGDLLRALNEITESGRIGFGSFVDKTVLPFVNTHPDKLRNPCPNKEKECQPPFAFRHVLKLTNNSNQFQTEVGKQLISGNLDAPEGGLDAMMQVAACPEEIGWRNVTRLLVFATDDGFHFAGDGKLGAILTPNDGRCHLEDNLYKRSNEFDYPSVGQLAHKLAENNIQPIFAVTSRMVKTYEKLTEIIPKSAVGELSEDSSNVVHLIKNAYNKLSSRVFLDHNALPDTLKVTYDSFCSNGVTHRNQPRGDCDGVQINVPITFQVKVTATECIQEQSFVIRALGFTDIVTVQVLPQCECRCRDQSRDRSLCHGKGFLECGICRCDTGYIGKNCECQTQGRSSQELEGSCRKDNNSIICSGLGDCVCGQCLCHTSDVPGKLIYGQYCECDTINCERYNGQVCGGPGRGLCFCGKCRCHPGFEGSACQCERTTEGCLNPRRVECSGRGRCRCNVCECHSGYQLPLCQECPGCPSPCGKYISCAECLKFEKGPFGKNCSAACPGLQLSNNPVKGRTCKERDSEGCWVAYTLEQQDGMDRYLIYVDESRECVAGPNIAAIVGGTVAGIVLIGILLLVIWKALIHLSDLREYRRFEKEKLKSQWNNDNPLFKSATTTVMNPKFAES
UniProt Q03692, residues 19-680: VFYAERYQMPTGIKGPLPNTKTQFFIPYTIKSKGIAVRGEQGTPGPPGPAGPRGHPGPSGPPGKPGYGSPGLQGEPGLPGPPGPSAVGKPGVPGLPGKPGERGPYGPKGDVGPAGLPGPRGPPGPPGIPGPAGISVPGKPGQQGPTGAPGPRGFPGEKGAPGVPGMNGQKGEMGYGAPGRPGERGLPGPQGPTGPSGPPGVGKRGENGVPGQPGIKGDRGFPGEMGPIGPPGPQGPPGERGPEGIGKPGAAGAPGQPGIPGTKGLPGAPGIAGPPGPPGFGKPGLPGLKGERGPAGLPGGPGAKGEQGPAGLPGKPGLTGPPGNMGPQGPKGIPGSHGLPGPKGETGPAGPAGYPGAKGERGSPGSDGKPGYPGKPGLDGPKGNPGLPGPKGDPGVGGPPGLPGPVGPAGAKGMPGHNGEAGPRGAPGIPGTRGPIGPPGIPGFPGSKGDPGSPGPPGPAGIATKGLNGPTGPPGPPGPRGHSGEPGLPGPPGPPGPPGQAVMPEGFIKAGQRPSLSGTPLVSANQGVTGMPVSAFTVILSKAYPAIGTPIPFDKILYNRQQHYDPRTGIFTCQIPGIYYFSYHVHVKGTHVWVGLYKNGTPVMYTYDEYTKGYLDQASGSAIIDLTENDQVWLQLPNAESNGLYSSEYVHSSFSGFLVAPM

No constants are given. Whether binding was seen depends on the method and setting. In cells and extracts the contact can be indirect. Some binding calls cover weakened binding; strength is not graded here.

This experiment deals with Cluster of differentiation 18 (UniProt P05107). Kind of experiment: co-IP; Co-immunoprecipitation of COL10A1 and CD18 (Fig. 7I); cells, bait and conditions not told in the text shown (Supplementary Methods).

Regarding “Collagen type X alpha 1 chain (from UniProt Q03692 19-680)”, the binding result is on record as “binds”.
